The subject of the experiment is A2780 ovarian carcinoma cells. Briefly: A2780 tumour cell proliferation, MTT colorimetric assay. The experiment is classed as cell-based, human. The settings on record: 4 days, mean±s.d. The procedure: Control cells were treated with the combined respective vehicle.

Broadly, the IC50 is the concentration that gives 50% inhibition. Read a low IC50 as inhibition by little substance.

Molecule `O=C(CCCCCCC(=O)Nc1ccccc1)NO` [Vorinostat, suberoylanilide hydroxamic acid] came in with an IC50 of 1160 ± 578 nM.
